Assay results as given in US5516889A, “Synthetic thrombin receptor peptides” (University Technologies International, Inc., priority 1995, dated 1996).
Not every detail of the peptide structures is certain; ends, links or a residue may be inferred. Residues, ends and D or L forms follow the SMILES beside them.

System: thrombin receptor (gastric longitudinal muscle strips)
Experiment: Gastric longitudinal muscle (LM) assay, either or both GLM and RLM
Assay type: cell-based
Description: LM: Either or both GLM and RLM
The guinea pig gastric longitudinal muscle (GLM) strips and the rat thoracic aorta (RA) ring preparations were isolated as previously described 14, 15. In brief, gastric LM strips (3×10 mm), obtained from male albino Hartley strain guinea pigs were equilibrated for about 1.5 h at 37° (in an aerated (95% O2 /5% CO2) Krebs-Henseleit buffer (3 mL) of the following composition (in mM): NaCl, 118; KCl, 4.7; CaCl2, 2.5; MgCl2, 1.2; NaHCO3, 25; KH2 PO4, 1.2; and glucose, 10. The pH was maintained at 7.4. Rat gastric LM strips (3×10 mm) were obtained, as for the GLM strips, from male albino Sprague Dawley animals (250-300 g). The stomach, opened along the greater curvature, was stripped free of all mucosal tissue under microscopic visualization and longitudinal tissue strips were cut exactly at right angles to the visible circular muscle bundles. Tissue strips were pre-equilibrated in the buffer described above. […] Contractions were monitored isometrically using Statham force-displacement transducers. […]
Weighed peptide samples were routinely dissolved in 50 mM phosphate buffer, pH 7.4, to yield stock solutions, from which volumes of up to 0.2 mL were added directly to the organ bath; the concentrations of all stock solutions used were verified by quantitative amino acid analysis of aliquots. […]

## CC(C)C[C@H](NC(=O)[C@H](CC(C)C)NC(=O)[C@@H](N)Cc1ccccc1)C(=O)N[C@@H](CCCNC(=N)N)C(=O)O [P4, F43 LLR46, reference compound] (H-FLLR-OH)
  Agonist (contractile) activity: inactive
